Two molecules from patent publication US20100160225A1 can be followed below.

Assay [1] concerns the target T1, GDF-11 (UniProt O95390).
T1 sequence (looked up): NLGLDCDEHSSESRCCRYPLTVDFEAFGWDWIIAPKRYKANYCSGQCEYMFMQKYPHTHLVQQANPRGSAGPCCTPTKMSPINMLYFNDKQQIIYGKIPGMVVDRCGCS
In words: BiaCore; GDF-11 amine-coupled to CM5 chip, conditioned medium as analyte. For orientation: SPR reads the build-up and loss of mass on a sensor chip optically.

In assay [2] the target is T1, GDF-11. In words: Biacore; GDF-11 immobilized on chip, conditioned medium of cells expressing the construct passed over.

These are yes or no findings as the source states them, for the method shown. Some results given as binding are weak or reduced against the parent protein; the word gives no strength.

B1: Lefty 28 (28 kDa short form of human Lefty-A) (ligand)
chain: LSPRSAQARVTVEWLRVRDDGSNRTSLIDSRLVSVHESGWKAFDVTEAVNFWQQLSRPRQPLLLQVSVQREHLGPLASGAHKLVRFASQGAPAGLGEPQLELHTLDLRDYGAQGDCDPEAPMTEGTRCCRQEMYIDLQGMKWAKNWVLEPPGFLAYECVGTCQQPPEALAFNWPFLGPRQCIASETASLPMIVSIKEGGRTRPQVVSLPNMRVQKCSCASDGALVPRRLQP
On to B1, for which the binding entry in the assay with GDF-11 [1] and with GDF-11 [2] was “binds” each time.

B2: Lefty 34 (34 kDa long form of human Lefty-A with R->G alteration of the second RXXR cleavage site) (ligand)
chain: FSQSFREVAGRFLASEASTHLLVFGMEQRLPPNSELVQAVLRLFQEPVPKAALHGHGRLSPRSAQARVTVEWLRVRDDGSNRTSLIDSRLVSVHESGWKAFDVTEAVNFWQQLSRPRQPLLLQVSVQREHLGPLASGAHKLVRFASQGAPAGLGEPQLELHTLDLRDYGAQGDCDPEAPMTEGTRCCRQEMYIDLQGMKWAKNWVLEPPGFLAYECVGTCQQPPEALAFNWPFLGPRQCIASETASLPMIVSIKEGGRTRPQVVSLPNMRVQKCSCASDGALVPRRLQP
For the molecule B2, the binding result in the assay with GDF-11 [1] and in the assay with GDF-11 [2] was “binds” throughout.
